This note sets out measurements from doi:10.1101/2023.12.22.572193.

These are yes or no findings as the source states them, for the method shown. In cells and extracts the contact can be indirect. A yes stands for co-enrichment or nearness to the bait. Other partners may have been found.

This assay has as its target PfCoronin^WT-smHA (P. falciparum (Pikine isolate, SenP019.04)) (UniProt Q8I4S2). The assay is described as follows: affinity purification with mass spectrometry.

Take “eukaryotic translation initiation factor 3 subunit B (from UniProt Q8I3T1)”: the binding result is “binds”.
